Source: PubChem BioAssay AID1671190 (National Center for Advancing Translational Sciences (NCATS), 2021)
Out of some 580,000 compounds screened, about 6,100 (1.1%) were called active. The inconclusive results got no clear call from the source; some entries with a clear call stand among them for comparison. The call rests on the fitted dose curve; in most records, active means well fitted inhibition curve with a large enough effect; inconclusive means small, poorly fitted or top-dose-only effect, or another doubt; inactive means no such curve, though single readings can be large or run the other way. A potency beside an inconclusive call is a rough fit, not a confirmed value.

Protein sequences, listed by entry. Tags and fused reporters are not part of them. Lines headed by an entry give the natural chain unless they say otherwise; changes in a name come on top.
UniProt P18054: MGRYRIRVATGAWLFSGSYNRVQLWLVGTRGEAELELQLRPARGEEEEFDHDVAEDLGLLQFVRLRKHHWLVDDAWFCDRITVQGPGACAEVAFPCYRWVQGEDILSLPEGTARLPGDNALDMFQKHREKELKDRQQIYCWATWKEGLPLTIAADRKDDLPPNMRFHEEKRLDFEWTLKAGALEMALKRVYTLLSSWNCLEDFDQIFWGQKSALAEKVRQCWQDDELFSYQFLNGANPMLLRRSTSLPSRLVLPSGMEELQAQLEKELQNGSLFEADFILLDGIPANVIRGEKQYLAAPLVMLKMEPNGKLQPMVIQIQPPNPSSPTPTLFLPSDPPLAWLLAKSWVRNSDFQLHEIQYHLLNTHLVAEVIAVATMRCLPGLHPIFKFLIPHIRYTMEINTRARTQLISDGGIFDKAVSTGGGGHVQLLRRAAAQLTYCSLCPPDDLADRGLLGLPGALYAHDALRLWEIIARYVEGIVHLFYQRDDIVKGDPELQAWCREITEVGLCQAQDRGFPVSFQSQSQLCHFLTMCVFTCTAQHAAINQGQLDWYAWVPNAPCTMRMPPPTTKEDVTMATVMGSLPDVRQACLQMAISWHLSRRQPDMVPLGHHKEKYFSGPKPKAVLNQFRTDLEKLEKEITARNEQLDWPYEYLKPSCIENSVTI

target: Polyunsaturated fatty acid lipoxygenase ALOX12 (Homo sapiens) (UniProt P18054); assay: Primary qHTS assay for inhibitors of human arachidonate 12S-lipoxygenase (ALOX12): Round 2; conditions: purified 12hLO, xylenol orange hydroperoxide absorbance; activity change, negative = inhibition: at 108 µM (top of the series) unless noted
How it was run: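 Hydroperoxide product was detected by ferrous iron/xylenol orange as the 573 to 405 nm absorbance ratio. Arachidonic acid at 40 uM (final) was turned over for 30 min at room temperature by 150 nM human 12hLO, pH 7.0 Hepes buffer, after 15 min compound preincubation.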
On the % scale 0 is the no-effect control and ±100 the full control effect; potency means the concentration at half of the fitted maximal effect.

Compound | Potency | activity change, negative = inhibition
Cc1[nH]c(C)c(S(=O)(=O)Nc2ccc(C(C)C)cc2)c1C(=O)N1CCCCC1 | inconclusive: 112 µM [inhibitor, partial curve, poor fit] | 
COc1cccc(NC(=O)Cn2cnc3onc(-c4ccccc4F)c3c2=O)c1 | inconclusive: 100 µM [inhibitor, partial curve, poor fit] | 
CC(C)Oc1ccc(C(=O)N2CCN(Cc3nc(N)c4ccccc4n3)CC2)cc1 |  | inactive: 14.5%
CCCS(=O)(=O)NC(=O)C1(C)CCN(C(=O)c2ccco2)C1 (centres undefined) | inconclusive: 70.8 µM [inhibitor, single point] | 
Cc1cc(C)nc(SCc2cccc(C(=O)O)c2)n1 | inconclusive: 17.8 µM [inhibitor, partial curve, poor fit] | 
O=C(CSc1ccccn1)Nc1nonc1[N+](=O)[O-] |  | inactive: -4.72%
CC1=C[C@@H](CN2CCN(c3ccccn3)CC2)[C@H](C(C)C)C[C@H]1Cc1nnc(-c2ccccc2)o1 | inconclusive: 56.2 µM [inhibitor, partial curve, poor fit] | 
CNc1cncc(-c2cc(C)c(O)c(C)c2)n1 | inconclusive: 44.7 µM [inhibitor, partial curve, poor fit] | 
C=CCn1c(=N)c(C#N)cc2c(=O)n3ccccc3nc21 |  | inactive: 16.2%
O=C(c1csc(Nc2cccc3ccccc23)n1)N1CCCC1 | inconclusive: 100 µM [inhibitor, single point] | 
CCOC(=O)CC(NC(=O)CCc1c(C)nc2cc(-c3ccccc3)nn2c1C)c1ccc(C)cc1 (centres undefined) | inconclusive: 63.1 µM [inhibitor, partial curve, poor fit] | 
CCOC(=O)N1CCC(N2CCCC(C(=O)c3ccc4cc(OC)ccc4c3)C2)CC1 (centres undefined) | inconclusive: 20 µM [inhibitor, full curve, poor fit] | 
CC(C)CN1C=C2C(=O)C(C)(OC(=O)CCc3ccccc3)C(=O)C=C2C=C1c1ccc(C#N)cc1 (centres undefined) |  | inconclusive: -34.4% [inhibitor]
Cn1nccc1-c1ccc(C(=O)Nc2cccc(NS(C)(=O)=O)c2)c2occc12 |  | inactive: 0.823%
COc1ccc([N+](=O)[O-])cc1NC(=O)C(C)OC(=O)c1ccccc1C(=O)c1ccc(Cl)cc1 (centres undefined) | inconclusive: 89.1 µM [inhibitor, partial curve, poor fit] | 
COc1ccc(Cn2c(C3CCN(C(=O)c4cc(F)ccc4F)CC3)n[nH]c2=O)cc1 | inconclusive: 39.8 µM [inhibitor, partial curve] | 
COc1cccc(NC(=O)Nc2cccs2)c1 |  | inactive: 145%
c1ccc(CNc2nc(NCC3CC3)nc3cc(-c4ccccc4)sc23)cc1 | inconclusive: 50.1 µM [inhibitor, partial curve, poor fit] | 
CCNC(=O)N1Cc2[nH]cnc2C[C@H]1c1nc(-c2ccc(F)c(Cl)c2)no1 | inconclusive: 35.5 µM [inhibitor, full curve] | 
CCn1c(-c2ccc([N+](=O)[O-])cc2)n[nH]c1=S | inconclusive: 56.2 µM [inhibitor, partial curve, poor fit] | 
COC(=O)c1c(C)oc2c1cc(NS(=O)(=O)c1ccc(OC)cc1)c1ccccc12 | inconclusive: 28.2 µM [inhibitor, partial curve, poor fit] | 
Cc1cccc(Nc2nc(N3CCCC3)nc(N3CCCC3)n2)c1 | inconclusive: 63.1 µM [inhibitor, partial curve, poor fit] | 

Compound | Potency | activity change, negative = inhibition
CCc1nc2ccccc2c(C(=O)OCC(=O)NC23CC4CC(CC(C4)C2)C3)c1C | inconclusive: 56.2 µM [inhibitor, partial curve, poor fit] | 
COc1ccc(C(=O)O)cc1S(=O)(=O)NCc1ccccn1 | inconclusive: 5.01 µM [inhibitor, full curve, poor fit] | 
Cn1c(-c2cc(Br)ccc2O)n[nH]c1=S | inconclusive: 50.1 µM [inhibitor, partial curve, poor fit] | 
COC(=O)CC1SC(=O)NC1=Nc1ccc(C)cc1 (centres undefined) |  | inactive: 22.7%
NNc1nc(-c2ccccc2Cl)c2cc(Br)ccc2n1 | inconclusive: 31.6 µM [inhibitor, partial curve, poor fit] | 
O=C(/C=C/c1ccsc1)NCCc1ccccc1 |  | inactive: 6.08%
Cc1ccc(Cl)cc1NC(=O)c1ccc2nc(CCc3ccccc3)oc2c1 | inconclusive: 141 µM [inhibitor, partial curve, poor fit] | 
COc1cc(/C=N/NC(N)=S)ccc1OCc1ccc(C)cc1 | active: 44.7 µM | 
CC(C)c1ccc(C2C3=C(CC(C)(C)CC3=O)NC3=C2C(=O)c2ccccc23)cc1 (centres undefined) | inconclusive: 50.1 µM [inhibitor, partial curve, poor fit] | 
COc1cccc(N(CC(=O)N/N=C(\C)c2cccs2)S(C)(=O)=O)c1 | inconclusive: 126 µM [inhibitor, partial curve, poor fit] | 
N#Cc1ccc(CNCc2ccc(CN3CCCC3)cc2)cc1 | inconclusive: 56.2 µM [inhibitor, partial curve, poor fit] | 
CCCCn1c(N)c(N(CCC(C)C)C(=O)C2=NN(c3cc(C)ccc3C)C(=O)CC2)c(=O)[nH]c1=O | inconclusive: 56.2 µM [inhibitor, partial curve, poor fit] | 
CCCc1nnc(NC(=O)CCC(=O)N2CCN(Cc3ccc(C)cc3C)CC2)s1 |  | inactive: -11.7%
COc1ccc(S(=O)(=O)N(C)C[C@H]2Oc3ccc(NS(=O)(=O)c4cccs4)cc3CC(=O)N([C@H](C)CO)C[C@H]2C)cc1 | inconclusive: 44.7 µM [inhibitor, partial curve, poor fit] | 
COc1cc(C2=CN(Cc3ccccc3)CCC2=O)cc(OC)c1OC |  | inactive: -18.5%
Cc1cc(C)cc(NC(=O)C(c2ccccc2)N2CCN(C(=O)C3CC3)CC2)c1 (centres undefined) |  | inactive: -21.6%
CCOc1ccc(Nc2oc(-c3ccc(COc4ccc(C)cc4)o3)nc2C#N)cc1 | inconclusive: 100 µM [inhibitor, partial curve, poor fit] | 
Cc1ccn(CCC(=O)N2CC(=O)N(C3CCCCC3)CC(OCc3ccccc3)C2)n1 (centres undefined) |  | inactive: 94.9%
CCn1c(=O)c(C(=O)NCCc2ccccc2)c(O)c2ccccc21 | inconclusive: 126 µM [inhibitor, single point] | 
O=C(Cc1c[nH]c2ccccc12)N/N=C/c1ccccc1O |  | inactive: -19%
CCCCC(Br)C(=O)Nc1ccc(S(=O)(=O)Nc2cc(C)nc(C)n2)cc1 (centres undefined) | inconclusive: 3.16 µM [inhibitor, full curve, poor fit] | 

Compound | Potency | activity change, negative = inhibition
CC(C)CNc1nc2ccccc2nc1NS(=O)(=O)c1ccccc1 | inconclusive: 89.1 µM [inhibitor, partial curve, poor fit] | 
CCn1c(=O)c(C(=O)NNC(=O)c2ccccc2)c(O)c2ccccc21 |  | inactive: -5.37%
O=C(NCCN1CCOCC1)c1cccc(S(=O)(=O)Nc2ccc(Br)cc2)c1 | inconclusive: 89.1 µM [inhibitor, partial curve, poor fit] | 
CN1CCN(C(CNCC(O)COC2CCCc3ccccc32)c2cccs2)CC1 (centres undefined) |  | inactive: 1.92%
O=C(CSc1nc2ccccc2c(=O)n1-c1ccccc1)NCc1ccc2c(c1)OCO2 |  | inactive: 0.436%
CCCNC(=O)NCCc1ncc(C)n1C(C)C |  | inactive: 39.1%
Cc1cccc(-n2c(N)c(C(=O)N3CCN(C)CC3)sc2=S)c1 | inconclusive: 39.8 µM [inhibitor, partial curve] | 
COc1ccc(C23CC4CC(CC(C4)C2)C3)cc1C(=O)NCCN(C)C | inconclusive: 44.7 µM [inhibitor, partial curve, poor fit] | 
CN[C@H]1C[C@H]2c3cc(-c4ccc5c(c4)OCO5)ccc3CCN2C[C@H]1[C@H](C)O | inconclusive: 100 µM [inhibitor, single point] | 
Cc1cccc(CN2CCc3c([nH]c4ccccc34)C2C(C)(C)C)n1 (centres undefined) | inconclusive: 15.8 µM [inhibitor, full curve, poor fit] | 
COc1ccc(NC(=O)O[C@@H]2CO[C@H]3[C@@H]2OC[C@@H]3NC(=O)Nc2cccc(C(F)(F)F)c2)cc1 | inconclusive: 50.1 µM [inhibitor, partial curve] | 
COc1ccc(CCN(C)C(=O)C2CCN(Cc3cccc(OC)c3OC)CC2)cc1OC | inconclusive: 0.708 µM [inhibitor, full curve, poor fit] | 
Cc1c(Cl)cccc1NC(=O)Cn1nc(C)c2ccccc2c1=O | inconclusive: 50.1 µM [inhibitor, partial curve, poor fit] | 
Oc1ccc(C[C@H]2CNC(=S)N2CC2CCCN2C[C@H](Cc2ccccc2)N2C[C@H](Cc3ccc(O)cc3)N(CC3CCCCCC3)C2=S)cc1 (some centres undefined) | active: 11.2 µM | 
O=C(CSc1nnc(-c2ccc(Cl)cc2)c(-c2ccc(Cl)cc2)n1)NC1CCCC1 |  | inactive: 5.12%
S=C(Nc1cccc(Cl)c1)N(CCCN1CCCC1)Cc1cccn1Cc1ccc(Cl)cc1 |  | inactive: 6.9%
CCCCn1c(=O)c2ccccc2n(CC(=O)Nc2cccc(C(F)(F)F)c2)c1=O | inconclusive: 20 µM [inhibitor, full curve, poor fit] | 
O=S(=O)(c1ccccc1Cl)N1CCC(O)(c2cccnc2)CC1 | inconclusive: 28.2 µM [inhibitor, single point] | 
O=C(NC1CC1)c1ccccc1OCC1CCCN(C2CCCCC2)C1 (centres undefined) |  | inactive: 9.48%
O=C(COc1ccccc1)NC1CCCc2c1[nH]c1ccccc21 (centres undefined) | inconclusive: 79.4 µM [inhibitor, single point] | 

Arranged by length of the SMILES (falling): 3 of the compounds above.
Compound | Potency | activity change, negative = inhibition
COC(=O)c1c(C)oc2c1cc(NS(=O)(=O)c1ccc(OC)cc1)c1ccccc12 | inconclusive: 28.2 µM [inhibitor, partial curve, poor fit] | 
CC(C)CNc1nc2ccccc2nc1NS(=O)(=O)c1ccccc1 | inconclusive: 89.1 µM [inhibitor, partial curve, poor fit] | 
O=C(/C=C/c1ccsc1)NCCc1ccccc1 |  | inactive: 6.08%
